In PubChem BioAssay AID256 (DTP/NCI, 2004):
The list is a part of this screen's results and no random one: it gathers tests that were run many times, whatever their T/C, doses with no T/C, and many T/C values between a quarter and a half above the control. Further doses and runs are listed elsewhere. T/C: endpoint of the treated group in % of that of the vehicle group. Some entries give survivors of the animals treated and no T/C: the source files T/C as zero there, which appears to mark a toxic dose or a test without result, not a measured value. Some doses without a T/C left all or most animals alive at the check, yet need not have been tolerated: the source hardly ever lists a survival T/C far under the control, and the zero likely stands for such cases as well. Survivors were counted at the toxicity check, usually on the fifth day, unless a day is given; later deaths do not show. Schedules are NCI's codes, taken here to give the interval after Q, in days (D) or hours (H), and the number of doses after X. Some doses were run more than once; their values stand side by side, smallest first. Marks such as (2×) stand for listed records that agree. For survival time, the PubChem record calls one and a half times the control and up active, and a quarter to a half above the control has no call in these data; cut-offs in other NCI protocols can differ. Some T/C values are followed by the survivors on the day toxicity was checked, most often the fifth; without a count, all were alive then.

Tested on: CD2F1 mice, L1210 leukemia ip, survival T/C
Assay: NCI In Vivo Anticancer Drug Screen. Data for tumor model L1210 Leukemia (intraperitoneal) in CD2F1 (CDF1) mice
Conditions: T/C endpoint: median survival time, higher T/C = longer survival
How it was run: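 Compound-dosed mice with transplantable tumor versus matched vehicle controls; endpoint ratio T/C reported.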

[1] = dose: 160.0 mg/kg/injection, schedule: Q01DX005 (ip), vehicle: alkali diluted with saline

S=c1nc[nH]c2nc[nH]c12
T/C (dose: 40.0 mg/kg/injection, schedule: Q01DX005 (ip), vehicle: alkali diluted with water, evaluated on day 35): 137 % of control
T/C (dose: 40.0 mg/kg/injection, schedule: Q01DX005 (ip), vehicle: saline): 101, 146, 151, 160, 164, 166 % of control
T/C (dose: 40.0 mg/kg/injection, schedule: Q01DX009 (ip), vehicle: alkali diluted with saline, evaluated on day 30): 149 % of control
T/C (dose: 40.0 mg/kg/injection, schedule: Q01DX009 (ip), vehicle: alkali diluted with saline, evaluated on day 45): 134 % of control
T/C (dose: 40.0 mg/kg/injection, schedule: Q01DX009 (ip), vehicle: water, evaluated on day 5): 147 % of control
T/C (dose: 40.0 mg/kg/injection, schedule: Q01DX009 (ip), vehicle: water, evaluated on day 33): 147 % of control
T/C (dose: 43.2 mg/kg/injection, schedule: Q01DX009 (ip), vehicle: alkali diluted with saline): 129 % of control
T/C (dose: 50.0 mg/kg/injection, schedule: Q01DX005 (ip), vehicle: alkali diluted with water): 141 % of control
T/C (dose: 50.0 mg/kg/injection, schedule: Q01DX009 (ip), vehicle: alkali diluted with saline, evaluated on day 5): 141 % of control
T/C (dose: 50.0 mg/kg/injection, schedule: Q01DX009 (ip), vehicle: alkali diluted with saline, evaluated on day 30): 154 % of control
T/C (dose: 50.0 mg/kg/injection, schedule: Q01DX009 (ip), vehicle: alkali diluted with saline, evaluated on day 45): 135, 138, 147, 153 % of control
T/C (dose: 60.0 mg/kg/injection, schedule: Q01DX001 (ip), vehicle: alkali diluted with water): 125 % of control
T/C (dose: 60.0 mg/kg/injection, schedule: Q01DX009 (ip), vehicle: Klucel (hydroxypropylcellulose) (HPC)): 136 % of control
T/C (dose: 60.0 mg/kg/injection, schedule: Q01DX009 (ip), vehicle: alkali diluted with saline): 146 % of control
T/C (dose: 80.0 mg/kg/injection, schedule: Q01DX005 (ip), vehicle: alkali diluted with saline): 144, 146, 151, 160, 176, 178, 217 % of control [4 of 6 alive]
T/C (dose: 80.0 mg/kg/injection, schedule: Q01DX005 (ip), vehicle: alkali diluted with water, evaluated on day 20): 136, 144, 147, 151 (2×), 164, 182 % of control
T/C (dose: 80.0 mg/kg/injection, schedule: Q01DX005 (ip), vehicle: alkali diluted with water, evaluated on day 30): 120, 129, 137 (2×), 144, 146 (2×), 148 (2×), 149, 151, 152, 153, 154 (3×), 155 (2×), 156 (2×), 157 (2×), 159 (2×), 163, 164, 166 [5 of 6 alive], 168, 169, 174, 176, 178, 185, 215 % of control
T/C (dose: 80.0 mg/kg/injection, schedule: Q01DX005 (ip), vehicle: alkali diluted with water, evaluated on day 35): 204 % of control
T/C (dose: 80.0 mg/kg/injection, schedule: Q01DX005 (ip), vehicle: saline): 106, 151, 170, 177, 212, 213 % of control
T/C (dose: 100.0 mg/kg/injection, schedule: Q01DX009 (ip), vehicle: alkali diluted with water): 134 % of control
T/C (dose: 120.0 mg/kg/injection, schedule: Q04DX003 (ip), vehicle: other): 128 % of control
survivor count (dose: 125.0 mg/kg/injection, schedule: Q01DX001 (ip), vehicle: alkali diluted with saline): 3 of 10
T/C (dose: 138.8 mg/kg/injection, schedule: Q01DX009 (ip), vehicle: alkali diluted with saline): 141 % of control
survivor count (dose: 150.0 mg/kg/injection, schedule: Q01DX001 (ip), vehicle: alkali diluted with saline): 5 of 10
T/C [1]: 93, 98, 134, 149, 151, 170 % of control
survivor count [1]: 5 of 6
T/C (dose: 160.0 mg/kg/injection, schedule: Q01DX005 (ip), vehicle: alkali diluted with water, evaluated on day 20): 130, 134, 141, 150, 163, 170 % of control
T/C (dose: 160.0 mg/kg/injection, schedule: Q01DX005 (ip), vehicle: alkali diluted with water, evaluated on day 30): 95, 98, 100 [5 of 6 alive], 103 (2×), 104, 106, 111, 112, 114, 116, 117 (2×), 121, 123, 123 [4 of 6 alive], 134, 142, 144, 146, 147, 148, 152, 153, 155, 157 [5 of 6 alive], 158 (2×), 164, 168, 170, 193 % of control
T/C (dose: 160.0 mg/kg/injection, schedule: Q01DX005 (ip), vehicle: alkali diluted with water, evaluated on day 35): 164 % of control
survivor count (dose: 160.0 mg/kg/injection, schedule: Q01DX005 (ip), vehicle: alkali diluted with water): 5 of 6 and 6 of 6 (2×)
T/C (dose: 160.0 mg/kg/injection, schedule: Q01DX005 (ip), vehicle: saline): 111, 113, 170, 175, 179, 185 % of control
T/C (dose: 160.0 mg/kg/injection, schedule: Q01DX005 (ip), vehicle: water): 141 % of control
T/C (dose: 167.0 mg/kg/injection, schedule: Q01DX001 (ip), vehicle: alkali diluted with water): 145 % of control [4 of 5 alive]
T/C (dose: 300.0 mg/kg/injection, schedule: Q04DX003 (ip), vehicle: Klucel (hydroxypropylcellulose) (HPC)): 146 % of control
survivor count (dose: 400.0 mg/kg/injection, schedule: Q01DX009 (ip), vehicle: alkali diluted with water): 1 of 6
